Assay [1] concerns the target T1, Never in mitosis kinase-2, endogenous in ARPE-19 cells (human (endogenous in ARPE-19)) (UniProt P51955).
T1 sequence: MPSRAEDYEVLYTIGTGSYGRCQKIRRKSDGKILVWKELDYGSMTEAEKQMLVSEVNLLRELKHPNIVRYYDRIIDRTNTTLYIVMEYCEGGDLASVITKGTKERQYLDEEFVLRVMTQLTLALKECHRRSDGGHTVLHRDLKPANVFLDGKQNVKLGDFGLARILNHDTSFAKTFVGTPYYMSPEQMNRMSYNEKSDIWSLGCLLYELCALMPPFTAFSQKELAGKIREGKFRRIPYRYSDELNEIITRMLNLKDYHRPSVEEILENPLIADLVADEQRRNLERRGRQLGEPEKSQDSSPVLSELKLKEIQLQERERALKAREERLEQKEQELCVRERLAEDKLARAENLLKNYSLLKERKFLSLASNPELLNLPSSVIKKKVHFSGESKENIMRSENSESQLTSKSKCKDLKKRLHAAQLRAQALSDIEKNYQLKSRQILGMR
Description: co-IP; untransfected ARPE-19 cells; immunoprecipitated with anti-AurA and anti-Nek2 antibodies and probed for PPP1R42.

Sequences of proteins named here, by UniProt entry; tags and fusion partners are left off.
UniProt Q7Z4L9: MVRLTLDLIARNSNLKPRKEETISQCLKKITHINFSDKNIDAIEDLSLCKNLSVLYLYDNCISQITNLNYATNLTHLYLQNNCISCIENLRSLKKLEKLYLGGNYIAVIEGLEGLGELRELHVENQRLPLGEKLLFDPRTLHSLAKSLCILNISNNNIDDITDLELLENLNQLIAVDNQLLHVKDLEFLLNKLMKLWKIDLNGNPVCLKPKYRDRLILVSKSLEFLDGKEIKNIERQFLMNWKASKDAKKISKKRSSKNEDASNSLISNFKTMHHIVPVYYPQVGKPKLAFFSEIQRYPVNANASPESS

For assay [2], the target named is T2, Aurora A, endogenous in ARPE-19 cells (human (endogenous in ARPE-19)) (UniProt O14965).
T2 sequence: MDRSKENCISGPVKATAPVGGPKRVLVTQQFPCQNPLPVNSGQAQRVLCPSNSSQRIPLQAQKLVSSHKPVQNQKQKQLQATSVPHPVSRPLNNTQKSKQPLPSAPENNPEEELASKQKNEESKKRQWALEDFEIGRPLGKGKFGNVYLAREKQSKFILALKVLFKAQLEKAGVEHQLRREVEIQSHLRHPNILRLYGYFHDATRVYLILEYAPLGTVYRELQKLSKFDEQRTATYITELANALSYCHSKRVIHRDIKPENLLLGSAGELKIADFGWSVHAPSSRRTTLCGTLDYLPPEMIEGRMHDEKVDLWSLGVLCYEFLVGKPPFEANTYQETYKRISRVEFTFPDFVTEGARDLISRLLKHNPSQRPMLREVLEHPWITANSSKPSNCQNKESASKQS
The description is as above.

Assay [3] has as its target T3, Aurora A, myc-tagged (AurA-myc) (UniProt O14965).
T3 sequence: T2 sequence
Briefly: co-IP; ARPE-19 cells cotransfected with AurA and Nek2 plasmids; lysates immunoprecipitated with AurA antibodies, Nek2 antibodies or no antibody and probed for AurA or Nek2.

In assay [4] the target is Phosphoprotein phosphatase 1 regulatory subunit 42, FLAG-tagged (PPP1R42-FLAG) (UniProt Q7Z4L9). Description: co-IP; PPP1R42 coexpressed with Nek2 or AurA in ARPE-19 cells (cycling, serum starved, serum added back); precleared lysate (1 mg protein) immunoprecipitated with affinity purified anti-PPP1R42 antibody and anti-rabbit IgG beads, or no antibody; probed for Nek2 or AurA.

Assay [5] has as its target T2, Aurora A, endogenous in ARPE-19 cells (human (endogenous in ARPE-19)). Description: co-IP; untransfected ARPE-19 cell lysates immunoprecipitated with AurA antibodies, Nek2 antibodies or no antibody and probed for AurA or Nek2.
Assay [6] addresses T4, Never in mitosis kinase-2, myc-tagged (Nek2-myc; Nek2A expression plasmid) (UniProt P51955).
T4 sequence: T1 sequence
Briefly: co-IP; ARPE-19 cells cotransfected with AurA and Nek2 plasmids; lysates immunoprecipitated with AurA antibodies, Nek2 antibodies or no antibody and probed for AurA or Nek2.

No constants are given. Whether binding was seen depends on the method and setting. Binding seen in cells or lysates may run through a third protein. Some entries that bind do so weakly or less than the wild type. For some of these results: Tags and fused reporters may be left off the sequences shown.

As for “Phosphoprotein phosphatase 1 regulatory subunit 42, endogenous in ARPE-19 cells (from UniProt Q7Z4L9 1-309)”, the binding entry in assay [1] and in assay [2] was “binds” throughout.

B1: Never in mitosis kinase-2, myc-tagged (Nek2-myc; Nek2A expression plasmid) (enzyme, UniProt P51955 1-445)
chain: T1 sequence
B1: the binding entry in assay [3] and in assay [4] was “binds” throughout.

B2: Never in mitosis kinase-2, endogenous in ARPE-19 cells (enzyme, UniProt P51955 1-445)
chain: T1 sequence
As to B2, the binding result in assay [5] is recorded as “binds”.

B3: Aurora A, myc-tagged (AurA-myc) (enzyme, UniProt O14965 1-403)
chain: T2 sequence
In the case of B3, the binding entry in assay [6] and in assay [4] was “binds” throughout.

The values are drawn from paper PMC5688660.
